Laboratory results reported in paper PMC5897410.

Chains of the proteins cited; added tags and fusions are not shown. Residues count along the entry.
UniProt P10591: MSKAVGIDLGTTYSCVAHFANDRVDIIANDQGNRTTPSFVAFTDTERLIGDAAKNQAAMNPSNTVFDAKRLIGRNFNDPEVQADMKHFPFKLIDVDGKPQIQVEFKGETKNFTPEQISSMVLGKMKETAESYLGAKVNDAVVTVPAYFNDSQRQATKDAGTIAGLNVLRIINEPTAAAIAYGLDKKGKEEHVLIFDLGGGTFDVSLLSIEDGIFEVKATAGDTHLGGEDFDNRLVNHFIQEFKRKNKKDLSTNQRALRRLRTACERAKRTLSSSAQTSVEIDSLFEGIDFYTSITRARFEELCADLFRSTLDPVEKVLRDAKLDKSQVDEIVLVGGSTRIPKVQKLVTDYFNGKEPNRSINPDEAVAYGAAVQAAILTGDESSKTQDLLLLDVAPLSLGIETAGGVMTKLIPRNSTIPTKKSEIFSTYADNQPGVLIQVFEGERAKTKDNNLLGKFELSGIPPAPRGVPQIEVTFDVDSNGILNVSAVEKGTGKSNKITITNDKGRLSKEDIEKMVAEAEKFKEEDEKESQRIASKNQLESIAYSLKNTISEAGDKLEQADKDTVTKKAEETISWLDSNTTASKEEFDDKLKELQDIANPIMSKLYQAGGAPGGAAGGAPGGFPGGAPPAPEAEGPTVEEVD
UniProt P11484: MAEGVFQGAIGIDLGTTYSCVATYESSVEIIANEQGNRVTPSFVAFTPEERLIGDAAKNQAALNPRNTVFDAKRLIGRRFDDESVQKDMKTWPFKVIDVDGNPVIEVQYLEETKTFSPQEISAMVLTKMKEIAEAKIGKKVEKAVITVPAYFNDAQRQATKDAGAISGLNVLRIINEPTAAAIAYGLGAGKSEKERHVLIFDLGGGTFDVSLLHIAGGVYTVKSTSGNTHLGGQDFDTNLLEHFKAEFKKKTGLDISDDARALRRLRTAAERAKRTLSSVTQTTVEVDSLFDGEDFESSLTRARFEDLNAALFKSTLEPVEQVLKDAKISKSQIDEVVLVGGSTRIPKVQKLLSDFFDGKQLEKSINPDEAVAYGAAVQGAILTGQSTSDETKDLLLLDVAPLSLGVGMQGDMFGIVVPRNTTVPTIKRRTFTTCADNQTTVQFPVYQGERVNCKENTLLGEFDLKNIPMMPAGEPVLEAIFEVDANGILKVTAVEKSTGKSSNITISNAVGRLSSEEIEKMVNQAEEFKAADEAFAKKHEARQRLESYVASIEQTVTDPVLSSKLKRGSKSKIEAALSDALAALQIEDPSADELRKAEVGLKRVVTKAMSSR
UniProt P0CS90, residues 24-654: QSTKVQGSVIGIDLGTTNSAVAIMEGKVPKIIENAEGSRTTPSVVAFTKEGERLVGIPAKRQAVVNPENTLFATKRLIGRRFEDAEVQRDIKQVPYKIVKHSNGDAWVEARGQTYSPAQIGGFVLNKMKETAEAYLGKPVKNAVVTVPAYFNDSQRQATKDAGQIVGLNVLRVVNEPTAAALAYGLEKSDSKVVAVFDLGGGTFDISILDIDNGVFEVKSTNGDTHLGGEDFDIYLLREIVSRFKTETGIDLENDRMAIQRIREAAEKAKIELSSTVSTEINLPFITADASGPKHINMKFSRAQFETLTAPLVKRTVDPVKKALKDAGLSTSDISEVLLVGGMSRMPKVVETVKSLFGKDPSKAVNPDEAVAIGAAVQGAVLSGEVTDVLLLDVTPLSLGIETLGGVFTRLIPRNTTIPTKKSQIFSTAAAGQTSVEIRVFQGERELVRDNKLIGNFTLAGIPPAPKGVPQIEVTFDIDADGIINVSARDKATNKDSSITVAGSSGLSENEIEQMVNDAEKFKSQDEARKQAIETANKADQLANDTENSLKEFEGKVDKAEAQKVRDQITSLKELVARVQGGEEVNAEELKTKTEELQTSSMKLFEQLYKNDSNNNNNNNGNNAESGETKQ

What follows are molecules tested against T1, GST fused to the unmutated aconitase (Aco1) C-terminal domain (yeast (S. cerevisiae)) (UniProt P19414) (assay: affinity purification with mass spectrometry; GST-C or GST-CΔ6 (bait) expressed in yeast, pulled down from lysates with glutathione beads; trypsin digestion in solution or in gel; LC-MS/MS).
T1 sequence: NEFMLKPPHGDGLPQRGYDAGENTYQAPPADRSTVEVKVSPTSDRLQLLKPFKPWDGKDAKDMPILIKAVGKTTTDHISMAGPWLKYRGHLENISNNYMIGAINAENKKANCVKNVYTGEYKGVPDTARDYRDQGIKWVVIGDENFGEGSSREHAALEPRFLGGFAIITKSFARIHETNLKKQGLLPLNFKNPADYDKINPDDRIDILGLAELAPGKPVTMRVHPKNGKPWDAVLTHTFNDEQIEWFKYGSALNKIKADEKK

Row | Molecule | binding
1 | Ssa1 (cytosolic Hsp70), endogenous (from UniProt P10591 1-642) | binds
2 | Ssb1, endogenous (from UniProt P11484 1-613) | binds
3 | Ssc1, endogenous (from UniProt P0CS90 24-654) | binds
4 | Sse2, endogenous (protein, UniProt P32590 1-693) MSTPFGLDLGNNNSVLAVARNRGIDVVVNEVSNRSTPSLVGFGPRNRYLGESGKTKQTSNVKNTVENLKRIIGLKFKDPEFDIENKFFTSKLVQLKNGKVGVEVEFGGKTHVFSATQLTAMFIDKVKHTVQEETKSSITDVCLAVPVWYSEEQRYNIADAARIAGLNPVRIVNDVTAAAVSYGVFKNDLPGPEEKPRIIGLVDIGHSTYTCSIMAFRKGEMKVLGTAYDKHFGGRDFDRAITEHFADQFKDKYKIDIRKNPKAYNRILIAAEKLKKVLSANTTAPFSVESVMDDIDVSSQLSREELEELVEPLLKRVTYPITNALAQAKLTVNDIDFVEIIGGTTRIPVLKKSISDVFGKPLSSTLNQDEAVAKGAAFICAIHSPTLRVRPFKFEDIDPYSVSYTWDKQVDDEDRLEVFPANSSYPSTKLITLHRTGDFSMKAVYTHPSKLPKGTSTTIAKWSFTGVKVPKDQDFIPVKVKLRCDPSGLHIIENAYTTEDITVQEPVPLPEDAPEDAEPQFKEVTKTIKKDVLGMTAKTFALNPVELNDLIEKENELRNQDKLVAETEDRKNALEEYIYTLRAKLDDEYSDFASDAEKEKLKNMLATTENWLYGDGDDSTKAKYIAKYEELASLGNIIRGRYLAKEEEKRQALRANQETSKMNDIAEKLAEQRRARAASDDSDDNNDENMDLD | binds

Results are given in words; binding and its absence hold for the method and conditions named. In cells and extracts the contact can be indirect. Here binding means that the protein was enriched with, or labelled near, the bait; the list need not be complete. Where a sequence is shown, tags or fusion partners need not be part of it.
